Experimental data taken from PubChem BioAssay AID540276 (National Center for Advancing Translational Sciences (NCATS), 2011).
In all, about 300,000 compounds went through this assay and about 5,400 (1.8%) were called active. The shares of active, inactive and inconclusive entries below differ from those in the screen. The call rests on the fitted dose curve; tested in HEK293 cells. Potencies beside an inconclusive call are fits to weak or partial responses and may not hold up.

Test: qHTS for inhibitors of binding or entry into cells for Marburg Virus
Details: Marburg virus pseudotyped entry inhibition, cell reporter; activity change, negative = inhibition: at 37.8 µM (top of the series) unless noted
On the % scale 0 is the no-effect control and ±100 the full control effect; potency means the concentration at half of the fitted maximal effect.

| SMILES | Potency | activity change, negative = inhibition |
| --- | --- | --- |
| CCOC(=O)c1sc2nc(CSc3ccccc3Cl)[nH]c(=O)c2c1C | inconclusive: 35.5 µM [inhibitor, single point] | – |
| CCN(C(=O)CSc1nnc(-c2ccccc2Cl)n1C1CCCC1)C1CCS(=O)(=O)C1 (stereo not given) | inconclusive: 11.2 µM [activator, partial curve, poor fit] | – |
| Cc1ccc(CNC(=O)C(=O)NCC2OCCN2C(=O)c2cccs2)cc1 (stereo not given) | inconclusive: 5.62 µM [activator, single point] | – |
| Cc1ccc(-c2cc(-c3ccco3)c(C#N)c(=O)[nH]2)cc1 | inconclusive: 3.55 µM [inhibitor, partial curve, poor fit] | – |
| O=C(OCC(=O)N1CCN(C(=O)c2ccco2)CC1)c1ccccc1OCc1ccc(Cl)cc1 | inconclusive: 35.5 µM [inhibitor, single point] | – |
| Cc1nccn1CC(=O)N/N=C/c1cccc(O)c1 | inconclusive: 2.31 µM [inhibitor, partial curve, poor fit] | – |
| CCC(C)c1ccccc1NC(=O)CN(C)CCOc1ccc(Cl)cc1 (stereo not given) | inconclusive: 8.91 µM [inhibitor, partial curve] | – |
| CC(NC(=S)Nc1ccc(OC(F)F)cc1OC(F)F)C(C)(C)C (stereo not given) | inconclusive: 22.4 µM [inhibitor, single point] | – |
| Cc1ccc(Cl)cc1N1CCN(C(=O)c2ccc3c(c2)CCN3S(=O)(=O)c2ccccc2)CC1 | inconclusive: 11.2 µM [inhibitor, partial curve, poor fit] | – |
| Cc1ccc(-c2nnc(Nc3cccc(O)c3)c3ccccc23)cc1S(=O)(=O)NCC1CCCO1 (stereo not given) | – | inactive: 9.2% [at 46.1 µM] |
| O=C(CN1C(=O)COc2ccccc21)N1CCc2ccccc2C1 | inconclusive: 35.5 µM [activator, single point] | – |
| CC(=O)c1ccc(NC(=O)COc2ccccc2C(=O)Nc2ccccc2)cc1 | inconclusive: 35.5 µM [inhibitor, single point] | – |
| OC(c1ccccc1)c1nccc2ccccc12 (stereo not given) | inconclusive: 6.31 µM [inhibitor, single point] | – |
| Cn1cccc1/C=N/NC(=O)c1ccc(OC(F)(F)C(F)F)cc1 | inconclusive: 14.6 µM [activator, partial curve] | – |
| O=C(COc1ccc2ccc(=O)oc2c1)N1CCN(c2ccccc2)CC1 | – | inconclusive: 19.3% [activator] |
| CCOc1ccccc1N(C(=O)c1snc(C(N)=O)c1N)C(CC)C(=O)NC1CCCC1 (stereo not given) | inconclusive: 0.562 µM [inhibitor, full curve, poor fit] | – |
| COc1ccc(NC(=O)CC(c2ccco2)C(C)C)cc1 (stereo not given) | – | inactive: 12.5% |
| CC(C)CN(C(=O)COC(=O)c1ccc([N+](=O)[O-])s1)c1c(N)n(Cc2ccccc2)c(=O)[nH]c1=O | – | inactive: 8.17% |
| Cc1ccc(Sc2ncccc2COC(=O)NC(C)C)cc1 | – | inactive: 16.6% [at 46.1 µM] |
| C=CCOc1ccc2c(OC)c3ccoc3nc2c1OC | – | inactive: 28.1% |
| O=S(=O)(c1ccc(F)cc1)c1nc(-c2ccccc2)oc1N1CCOCC1 | inconclusive: 35.5 µM [inhibitor, single point] | – |
| CCCCOc1ccc(NC2=NC3(CCCCC3)N=C(N)N2)cc1 | inactive | – |
| COCCCNC(=O)c1ccccc1Oc1ccccc1 | – | inactive: 1.21% [at 46.1 µM] |
| O=C(O)c1ccccc1C(=O)NC1CCCCNC1=O (stereo not given) | – | inactive: -3.42% [at 46.1 µM] |

Part of the list above, tab-delimited.
SMILES	Potency	activity change, negative = inhibition
O=S(=O)(c1ccc(F)cc1)c1nc(-c2ccccc2)oc1N1CCOCC1	inconclusive: 35.5 µM [inhibitor, single point]	–
CCCCOc1ccc(NC2=NC3(CCCCC3)N=C(N)N2)cc1	inactive	–

Further structures follow:

| SMILES | Potency | activity change, negative = inhibition |
| --- | --- | --- |
| O=C(Nc1ccccc1)c1ccc(OC(=O)c2cc3ccccc3o2)cc1 | – | inactive: 4.7% |
| O=C(CSc1nc(-c2ccco2)cc(C(F)(F)F)n1)Nc1ccc2c(c1)OCO2 | – | inactive: -10.7% |
| O=C(CCS(=O)(=O)c1ccc(Br)cc1)Nc1ccc2c(c1)OCO2 | – | inactive: 19.2% |
| COc1ccc(COC(=O)NNC(=O)c2ccccc2Cl)cc1 | – | inactive: 0.836% |
| CCCS(=O)(=O)N1CCN(Cc2ccc([N+](=O)[O-])cc2)CC1 | inconclusive: 5.62 µM [activator, single point] | – |
| O=C(Nc1ccc(S(=O)(=O)N2CCOCC2)cc1)c1ccc([N+](=O)[O-])o1 | inconclusive: 28.2 µM [inhibitor, partial curve, poor fit] | – |
| COc1ccc(C(=O)Nc2cccc(S(=O)(=O)N3CCCC3)c2)cc1S(=O)(=O)N1CCOCC1 | – | inactive: -7.41% [at 46.1 µM] |
| Cc1ccc([N+](=O)[O-])cc1S(=O)(=O)Nc1cccc(-c2ccc(N3CCCC3)nn2)c1 | – | inactive: -1.51% |
| COc1cc(OC)c(N(C)C(=O)c2cn(C3CCCC3)c(=O)c3c2c2ccccc2n3C)cc1Cl | inconclusive: 25.1 µM [inhibitor, single point] | – |
| COc1ccc(-c2nc(-c3ccc(Br)cc3)no2)c(OC)c1 | inconclusive: 0.411 µM [activator, partial curve, poor fit] | – |
| Cc1ccc(-n2c(SCC(=O)c3c(N)n(C4CC4)c(=O)[nH]c3=O)nnc2N2CCOCC2)cc1 | – | inactive: 6.37% [at 46.1 µM] |
| CC(C)NC(=O)c1ccc(S(=O)(=O)N(C)C)cc1 | – | inactive: -3.38% [at 46.1 µM] |
| CC(C)(CCl)C(=O)Nc1ccc(C(F)(F)F)cc1 | – | inactive: -5.58% [at 46.1 µM] |
| c1ccc2c(CCNc3ncnc4nc[nH]c34)cccc2c1 | inconclusive: 18.3 µM [inhibitor, single point] | – |
| O=C(c1cc(COc2ccc(F)cc2Cl)on1)N1CC[C@@H]2CCCC[C@H]2C1 | – | inactive: -6.53% |
| COc1ccc(-n2nc(C(=O)Nc3ccc(Cl)cn3)c3c4ccccc4n(C)c3c2=O)cc1 | – | inactive: -10.2% [at 46.1 µM] |
| CCc1ccc(Nc2nnc(SCC(=O)Nc3cccc(S(=O)(=O)NC4=NCCCCC4)c3)s2)cc1 | inconclusive: 0.92 µM [inhibitor, full curve] | – |
| COc1cccc(NS(=O)(=O)c2c(C)cc(C)cc2C)c1 | – | inactive: -6.31% |
| Cc1ccc(-n2nnnc2-c2cnn(-c3ccc(F)cc3)c2C(F)(F)F)cc1 | inconclusive: 4.11 µM [inhibitor, partial curve, poor fit] | – |
| CC(C)COc1ccc(Cc2cnc(N)nc2N)cc1 | – | inactive: -22.2% |
| CCc1ccc(OCC(=O)N2CCN=C2c2ccccc2)cc1 | inconclusive: 1.41 µM [inhibitor, full curve, poor fit] | – |
| Cc1cccc(C)c1NC(=S)/C(=C(\[O-])c1cccs1)[n+]1ccccc1 | – | inactive: -0.818% |
| CC(=O)c1cccc(NC(=O)Nc2nnc(N3CCCC3)s2)c1 | inconclusive: 15.8 µM [inhibitor, single point] | – |
| O=C(/C=C/c1ccccc1)NCc1ccco1 | inconclusive: 20 µM [activator, single point] | – |

| SMILES | Potency | activity change, negative = inhibition |
| --- | --- | --- |
| Cc1ccc(CN(C(=O)C(F)(F)F)C(C(=O)NC2CCCCC2)c2ccco2)cc1 (stereo not given) | inconclusive: 20 µM [inhibitor, partial curve, poor fit] | – |
| CC(Nc1cc(N2CCN(C(=O)C(C)(C)C)CC2)ccc1[N+](=O)[O-])c1ccccc1 (stereo not given) | inconclusive: 16.4 µM [inhibitor, partial curve, poor fit] | – |
| CCn1c(SCc2cccc(C(F)(F)F)c2)nnc1-c1ccco1 | – | inactive: -27.5% |
| COc1ccc(NC(=O)c2c(C)oc3ccc(O)c(CN4CCN(Cc5ccccc5)CC4)c23)cc1Cl | inconclusive: 28.2 µM [inhibitor, single point] | – |
| O=C(N/N=C/c1ccc(O)cc1)c1cc(-c2ccc3c(c2)OCO3)n[nH]1 | active: 7.94 µM | – |
| COc1ccc(C(CNC(=O)c2cccc(Br)c2)N2CCCC2)cc1 (stereo not given) | active: 11.6 µM | – |
| CC(=O)Nc1ccc(C2=NN(c3ccccc3)C(c3ccccc3)C2)cc1 (stereo not given) | – | inactive: -21.9% [at 46.1 µM] |
| Cc1cccc(NC(=O)CN2CCN(CC(=O)NCC3(N4CCCCC4)CCCCC3)CC2)c1C | inconclusive: 12.6 µM [inhibitor, partial curve, poor fit] | – |
| COC(=O)c1ccccc1C(=O)c1cccc2ccccc12 | inconclusive: 25.1 µM [inhibitor, partial curve, poor fit] | – |
| CN(Cc1ccccc1)C(=O)CC(=O)N(C)Cc1ccccc1 | inconclusive: 20 µM [activator, partial curve, poor fit] | – |
| Cc1cccc2nc3ccccc3nc12 | inconclusive: 5.01 µM [activator, full curve] | – |
| Cc1ccccc1OCCCCn1c(CO)nc2ccccc21 | inconclusive: 12.6 µM [inhibitor, partial curve, poor fit] | – |
| C/C(N)=C(/C#N)C(=O)CSc1nnc(NC(C)C)s1 | inconclusive: 2.91 µM [activator, full curve] | – |
| O=C(NCc1ccccc1)c1ccc2c(=O)[nH]c3c(C(=O)NCC4CCCO4)sc(=S)n3c2c1 (stereo not given) | inconclusive: 5.01 µM [inhibitor, partial curve, poor fit] | – |
| O=C(Nc1nc(-c2ccc(Cl)cc2Cl)cs1)c1ccc(OCC2CCCO2)cc1 (stereo not given) | inconclusive: 2.82 µM [inhibitor, full curve, poor fit] | – |
| CCOC(=O)C1=C(CSc2nc3c(cc2C#N)CN(C)CC3)OC(N)=C(C#N)C1c1ccc(F)cc1 (stereo not given) | inconclusive: 22.4 µM [inhibitor, single point] | – |
| Nn1c(SCC(=O)Nc2ccc(Oc3ccccc3)cc2)nnc1C1CC1 | – | inactive: -14% |
| O=C(O)c1cccc(COc2ccc3c(c2)CCC3)c1 | inconclusive: 0.517 µM [inhibitor, full curve, poor fit] | – |
| CSCCC(NC(=O)c1ccc([N+](=O)[O-])cc1Cl)C(=O)OCC(=O)N(C)C (stereo not given) | inconclusive: 0.112 µM [inhibitor, full curve, poor fit] | – |
| COc1ccc(NC(=O)CSCC(=O)OCc2cccc(OC)c2OC)cc1 | inconclusive: 0.251 µM [inhibitor, full curve, poor fit] | – |
| CCOc1cc(/C=N/O)cc(Br)c1OCc1ccc(Cl)cc1 | inconclusive: 12.6 µM [inhibitor, partial curve, poor fit] | – |
| C=CCOc1ccc(C(=O)/C=C2/C(=O)Nc3ccccc32)cc1 | inconclusive: 35.5 µM [inhibitor, single point] | – |

Grouped by structure, the compounds so far with an aryl thioether with sulfur outside any ring (ten)

| SMILES | Potency | activity change, negative = inhibition |
| --- | --- | --- |
| CCOC(=O)c1sc2nc(CSc3ccccc3Cl)[nH]c(=O)c2c1C | inconclusive: 35.5 µM [inhibitor, single point] | – |
| CCN(C(=O)CSc1nnc(-c2ccccc2Cl)n1C1CCCC1)C1CCS(=O)(=O)C1 (stereo not given) | inconclusive: 11.2 µM [activator, partial curve, poor fit] | – |
| Cc1ccc(Sc2ncccc2COC(=O)NC(C)C)cc1 | – | inactive: 16.6% [at 46.1 µM] |
| O=C(CSc1nc(-c2ccco2)cc(C(F)(F)F)n1)Nc1ccc2c(c1)OCO2 | – | inactive: -10.7% |
| Cc1ccc(-n2c(SCC(=O)c3c(N)n(C4CC4)c(=O)[nH]c3=O)nnc2N2CCOCC2)cc1 | – | inactive: 6.37% [at 46.1 µM] |
| CCc1ccc(Nc2nnc(SCC(=O)Nc3cccc(S(=O)(=O)NC4=NCCCCC4)c3)s2)cc1 | inconclusive: 0.92 µM [inhibitor, full curve] | – |
| CCn1c(SCc2cccc(C(F)(F)F)c2)nnc1-c1ccco1 | – | inactive: -27.5% |
| C/C(N)=C(/C#N)C(=O)CSc1nnc(NC(C)C)s1 | inconclusive: 2.91 µM [activator, full curve] | – |
| CCOC(=O)C1=C(CSc2nc3c(cc2C#N)CN(C)CC3)OC(N)=C(C#N)C1c1ccc(F)cc1 (stereo not given) | inconclusive: 22.4 µM [inhibitor, single point] | – |
| Nn1c(SCC(=O)Nc2ccc(Oc3ccccc3)cc2)nnc1C1CC1 | – | inactive: -14% |
